# Measured values reported in PubChem BioAssay AID624297 (National Center for Advancing Translational Sciences (NCATS), 2012).
# Among all 340,000 compounds or so, about 6,200 (1.8%) were called active. This list was built around the results that the source calls inconclusive (neither active nor inactive); the mix of calls is not that of the screen. Calls come from the whole dose curve; as a rule, active = well fitted activation curve with a large enough effect; inconclusive = small, poorly fitted or top-dose-only effect; inactive = no such curve, though single readings can be large or run the other way. Potencies beside an inconclusive call are fits to weak or partial responses and may not hold up.
# Assay: A quantitative high throughput screen for small molecules that induce DNA re-replication in SW480 colon adenocarcinoma cells. For re-replication activation: % of control where 0% means no effect. Note: nearly all actives have a fitted effect of over 55% in size.
# Details: Hoechst DNA content imaging, 48 h; re-replication activation: at 46.1 µM (top of the series) unless noted
# In short: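 Hoechst fluorescence of nuclei (405 nm excitation, 500-530 nm emission) measured by plate-scanning imager after 48 hr compound exposure at 37 C; re-replication scored as increased number of nuclei with elevated intensity.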
# Potency is the fitted concentration of half-maximal effect.
SMILES,Potency,re-replication activation
CCc1cc2c(=O)c(-c3nc4ccccc4n3C)c(C)oc2cc1OC(C)=O,"inconclusive: 16.4 µM [activator, single point]",–
Cc1ccccc1CN1C2=NCCN2c2ccccc21,"inconclusive: 14.6 µM [activator, single point]",–
CCCN1CCN(C(=O)c2cc(COc3ccc(F)c(F)c3)on2)CC1,"inconclusive: 32.6 µM [activator, single point]",–
CCC(=O)Nc1nc2ccccc2n1Cc1ccc(Cl)cc1,"inconclusive: 1.03 µM [activator, single point]",–
C=CC(=O)Nc1cccc(CN2C(=O)N(c3cc(OC)cc(OC)c3)Cc3cnc(NCCCCN(CC)CC)nc32)c1,inactive,–
CCN(Cc1nc2ccccc2c(=O)[nH]1)Cc1nc2ccsc2c(=O)[nH]1,"inconclusive: 6.51 µM [activator, single point]",–
FC(F)(F)c1ccc(-n2cnc3ccccc32)nc1,"inconclusive: 29.1 µM [activator, single point]",–
COc1cccc([C@@H]2Oc3ccc(OC)cc3C(=O)[C@H]2O)c1,"inconclusive: 29.1 µM [activator, single point]",–
COc1ccc(/C=C/C(=O)c2ccncc2)c2ccccc12,"inconclusive: 25.9 µM [activator, single point]",–
Cc1cccc(Nc2ccccc2C(=O)OCC(=O)NCc2ccco2)c1C,"inconclusive: 20.6 µM [activator, partial curve, poor fit]",–
Cc1cc(NC(=O)CSc2nc3ccccc3c(=O)n2C(C)c2ccccc2)no1 (stereo unspecified),"inconclusive: 23.1 µM [activator, single point]",–
Cc1ccc(C)c(NC(=O)c2nc(-c3ccccc3)n(-c3ccccc3)n2)c1,"inconclusive: 29.1 µM [activator, single point]",–
Nc1c(C(=O)C2CC2)sc2nc(-c3ccccc3)cc(C(F)(F)F)c12,"inconclusive: 20.6 µM [activator, partial curve, poor fit]",–
Cc1nc2nc(C)c(CCC(=O)N3CCc4ccccc43)c(C)n2n1,inactive,–
COc1cc(CNc2ccc3[nH]c(=O)[nH]c3c2)cc(Br)c1OCc1ccccc1F,"inconclusive: 11.6 µM [activator, partial curve, poor fit]",–
CC1CN(S(=O)(=O)c2ccc(C(=O)Nc3nc(-c4cc5ccccc5o4)cs3)cc2)CC(C)O1 (stereo unspecified),"inconclusive: 29.1 µM [activator, single point]",–
COc1cccc(-c2nnc(NC(=O)c3ccco3)s2)c1,inactive,–
COc1ccc(CN2CCCC(C(=O)c3ccc(Cl)cc3)C2)cc1Cn1cccn1 (stereo unspecified),"inconclusive: 29.1 µM [activator, single point]",–
O=[N+]([O-])c1ccc(O)c(/C=N\N=C2c3ccccc3-c3ccccc32)c1,"inconclusive: 29.1 µM [activator, partial curve, poor fit]",–
COc1cc(C(=O)OCCc2cc3ccccc3c(=O)o2)cc(OC)c1OC,active: 8.2 µM,–
COC(=O)CNC(=O)/C=C/c1cc(Br)ccc1OC,"inconclusive: 3.98 µM [activator, single point]",–
CCOc1ccc(-n2c(=O)c3c4c(sc3n(CC(=O)NCc3ccco3)c2=O)CCC4)cc1,inactive,–

# Structures from the list above that have a carbonyl joined to an NH by a bond outside any ring (9):
SMILES,Potency,re-replication activation
CCC(=O)Nc1nc2ccccc2n1Cc1ccc(Cl)cc1,"inconclusive: 1.03 µM [activator, single point]",–
C=CC(=O)Nc1cccc(CN2C(=O)N(c3cc(OC)cc(OC)c3)Cc3cnc(NCCCCN(CC)CC)nc32)c1,inactive,–
Cc1cccc(Nc2ccccc2C(=O)OCC(=O)NCc2ccco2)c1C,"inconclusive: 20.6 µM [activator, partial curve, poor fit]",–
Cc1cc(NC(=O)CSc2nc3ccccc3c(=O)n2C(C)c2ccccc2)no1 (stereo unspecified),"inconclusive: 23.1 µM [activator, single point]",–
Cc1ccc(C)c(NC(=O)c2nc(-c3ccccc3)n(-c3ccccc3)n2)c1,"inconclusive: 29.1 µM [activator, single point]",–
CC1CN(S(=O)(=O)c2ccc(C(=O)Nc3nc(-c4cc5ccccc5o4)cs3)cc2)CC(C)O1 (stereo unspecified),"inconclusive: 29.1 µM [activator, single point]",–
COc1cccc(-c2nnc(NC(=O)c3ccco3)s2)c1,inactive,–
COC(=O)CNC(=O)/C=C/c1cc(Br)ccc1OC,"inconclusive: 3.98 µM [activator, single point]",–
CCOc1ccc(-n2c(=O)c3c4c(sc3n(CC(=O)NCc3ccco3)c2=O)CCC4)cc1,inactive,–

# Remaining list, next part:

SMILES,Potency,re-replication activation
S=C(NCc1ccco1)N1CCN(c2cccc(Cl)c2)CC1,inactive,–
CN1CCN(c2nc(Nc3cccc(C(F)(F)F)c3)nc(N3CCOCC3)n2)CC1,"inconclusive: 20.6 µM [activator, single point]",–
Cc1cc(C)cc(NC(=O)C(c2ccccc2)N2CCN(CC(=O)NC3CC3)CC2)c1 (stereo unspecified),inactive,–
O=C(NC(Cc1c[nH]c2ccccc12)C(=O)Nc1ccc(F)c([N+](=O)[O-])c1)c1cccs1 (stereo unspecified),"inconclusive: 29.1 µM [activator, partial curve, poor fit]",–
COc1c(OC)c(O)c2c(=O)c(O)c(-c3ccccc3)oc2c1OC,inactive,–
CCOC(=O)c1ccc(-c2ccc(/C=N/NC(=O)CN(c3ccccc3Cl)S(C)(=O)=O)o2)cc1,"inconclusive: 29.1 µM [activator, single point]",–
Cc1nc(Nc2nc(-c3ccccc3)cc(=O)[nH]2)nc2ccccc12,"inconclusive: 29.1 µM [activator, single point]",–
Cc1cccc(C)c1OCc1cc(C(=O)NCC2CC2)no1,inactive,–
COc1cc(/C=C2\N=C(c3ccccc3)NNC2=O)cc(OC)c1OC,active: 5.8 µM,–
CCn1c(=O)n(CC)c2cc(S(=O)(=O)N3CCOCC3)ccc21,"inconclusive: 32.6 µM [activator, partial curve, poor fit]",–
O=C(c1cc(-c2ccccc2Cl)on1)N1CCN(C(=O)c2ccco2)CC1,inactive,–
COc1ccc(C(C(=O)NCCC(C)C)N(CCN2CCOCC2)C(=O)Cn2nnc3ccccc32)c(OC)c1 (stereo unspecified),inactive,–
Cc1ccc(S(=O)(=O)N(Cc2ccc(Cl)cc2)c2ccccc2C(=O)NCc2ccco2)cc1,"inconclusive: 18.4 µM [activator, single point]",–
COc1ccc(OC)c(N=c2oc3cc(O)ccc3cc2C(N)=O)c1,active: 18.4 µM,–
Clc1ccc(C2=NCCn3nc4ccccc4c32)cc1,"inconclusive: 23.1 µM [activator, partial curve, poor fit]",–
CC1CC(C)CN(CCCNC(=O)CN2C(=O)COc3ccc(S(=O)(=O)N4CCOCC4)cc32)C1 (stereo unspecified),inactive,–
COc1cccc(/C=C/C(=O)c2ccc[nH]2)c1,"inconclusive: 20 µM [activator, single point]",–
Cc1[nH]nc2oc(=O)c(CCO)c(C)c12,active: 16.4 µM,–
O=C(NCCC1=CCCCC1)c1cccc(S(=O)(=O)N2CCCCC2)c1,"inconclusive: 16.4 µM [activator, partial curve, poor fit]",–
CCC(C)NC(=O)c1ccccc1NC(=O)COc1ccc(OC)cc1 (stereo unspecified),"inconclusive: 18.4 µM [activator, single point]",–
CC(C)Oc1cccc(C(=O)C2CCCN(Cc3cccn3-c3ccccn3)C2)c1 (stereo unspecified),"inconclusive: 18.4 µM [activator, single point]",–
CCc1c(C)nc2ncnn2c1N1CCC(C(=O)NCc2cccs2)CC1,"inconclusive: 29.1 µM [activator, partial curve, poor fit]",–

SMILES,Potency,re-replication activation
O=C(NCc1ccccc1)C1=C[C@@H](c2csc3ccccc23)C[C@@H](OCc2ccc(CO)cc2)O1,"inconclusive: 32.6 µM [activator, single point]",–
COc1ccc(OC)c2c(C)cc(N3CCCCCC3)nc12,"inconclusive: 25.9 µM [activator, single point]",–
CCN(CC)c1ccc(/C=N/NC(=O)Cc2cccs2)cc1,inactive,–
C/C=C1\COC(C(=O)NCCN2CCCC2)(C(F)(F)F)C=C1C=C1CCCCC1 (stereo unspecified),"inconclusive: 0.206 µM [activator, full curve, poor fit]",–
Cc1ccc(Nc2nc(N3CCOCC3)nc(N3CCOCC3)n2)cc1Cl,"inconclusive: 2.59 µM [activator, full curve]",–
O=C(c1ccc2nc(-c3ccco3)c(-c3ccco3)nc2c1)N1CCN(c2ccccc2)CC1,"inconclusive: 29.1 µM [activator, single point]",–
N#Cc1ccc(S(=O)(=O)N2CCC(C(=O)Nc3cccc(C(=O)NC4CC4)c3)CC2)cc1,"inconclusive: 6.51 µM [activator, single point]",–
CCCCn1c(SCC(=O)NC(=O)Cc2ccccc2)nc2ccccc2c1=O,"inconclusive: 20.6 µM [activator, single point]",–
CN1CCN(C2=Nc3ccccc3Sc3ccc(Cl)cc32)CC1,inactive,–
NC(=S)NC(=O)/C=C/c1ccccc1,"inconclusive: 2.31 µM [activator, single point]",–
O=C1/C(=C/c2ccccc2Cl)SC(=S)N1CCCC(=O)N(CCO)c1ccccc1,"inconclusive: 29.1 µM [activator, single point]",–
O=S(=O)(Nc1cccc(-c2ccc3nncn3n2)c1)c1ccccc1F,inactive,–
O=C(O)c1cc(=O)c2c3nc4ccccc4oc-3cc(=O)c2[nH]1,"inconclusive: 33.5 µM [activator, partial curve, poor fit]",–
CCc1[nH]nc(C(=O)NC2CCCc3c2cnn3-c2cc(C)cc(C)c2)c1C (stereo unspecified),"inconclusive: 29.1 µM [activator, partial curve, poor fit]",–
CCOc1ccc(-c2n[nH]c(C)c2Oc2ccc(OC)cc2)c(O)c1,–,inactive: -2.99% [at 9.22 µM]
COc1ccc(C(=O)Sc2ccc(Cl)cc2)cc1OC,inactive,–
N#Cc1c(C#N)c(SSc2c(C#N)c(C#N)c(N)n2-c2ccccc2)n(-c2ccccc2)c1N,"inconclusive: 5.17 µM [activator, single point]",–
COc1ccc(C(=O)CC(c2ccccc2)C2C(=O)CCCC2=O)cc1 (stereo unspecified),inactive,–
CCCc1cc(=O)oc2c(C)c(OCC(=O)NC3CC(C)(C)NC(C)(C)C3)ccc12,"inconclusive: 29.1 µM [activator, single point]",–
COc1cc(N=c2ssnc2Cl)cc(OC)c1,"inconclusive: 35.5 µM [activator, single point]",–
Cc1nnc(SCc2nnc(-c3ccccc3Br)o2)s1,inactive,–
O=C(C[C@H]1C[C@H](C(=O)N2CCOCC2)[C@@]2(CCC3CCCC3)c3[nH]c4cc(-c5ccco5)ccc4c3CCN2C1=O)NCc1ccco1,"inconclusive: 20.6 µM [activator, partial curve, poor fit]",–

# 2 consecutive compounds from above, quoted:
SMILES,Potency,re-replication activation
COc1ccc(OC)c2c(C)cc(N3CCCCCC3)nc12,"inconclusive: 25.9 µM [activator, single point]",–
CCN(CC)c1ccc(/C=N/NC(=O)Cc2cccs2)cc1,inactive,–
